From article doi:10.1101/2022.05.18.492126

Molecular target: HscA-GFP fusion protein from the A. fumigatus hscA-gfp strain (Aspergillus fumigatus) (UniProt Q4WCM2)
Experiment: co-IP

In the case of “human p11 protein (S100A10, light chain of annexin A2) (from UniProt P60903 1-97)”, the binding is reported as “binds”.

No constants are given. Whether binding was seen depends on the method and setting. Binding seen in cells or lysates may run through a third protein. A result given as binding can be weak or reduced; the word gives no strength.
